Experimental data from PubChem BioAssay AID662 (National Center for Advancing Translational Sciences (NCATS), 2007).
This is one part of the list. Further columns of the screen follow, without active or inactive calls. Compounds called inactive in the main read-out are mostly missing here. Potencies come from curve fits of mixed quality, noted in brackets.

assay: Cell signaling CRE-BLA (Fsk stim); details: CHO CRE-bla reporter (cAMP response element driving beta-lactamase), forskolin EC10, beta-lactamase ratio; measured here: 460 nm blue channel
Outline: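 The 460nm/530nm emission ratio after CCF4 loading defined %Activity, from which AC50 values were obtained. CRE-bla CHO cells received compound dilution series together with an EC10 level of NKH 477 for 3 hours at 37 degrees Celsius.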

Row | Compound | AC50
1 | Cc1nc(Nc2nc(-c3ccccc3)cc(=O)[nH]2)nc2ccccc12 | 10 µM [rising, partial curve]
2 | CC(=O)O[C@]1(C)N=NC2(CCCCC2)O1 | 0.01 µM [falling, full curve, poor fit]
3 | N=c1ccn(Cc2ccc(Cl)c(Cl)c2)cc1 | 15.8 µM [falling, partial curve]
4 | CCOC(=O)c1sc2ccc(S(=O)(=O)N3CCOCC3)cc2c1N | 10 µM [rising, single point]
5 | CCOc1ccc(-n2c(=O)c3c4c(sc3n(CC(=O)NCc3ccco3)c2=O)CCC4)cc1 | 3.16 µM [falling, partial curve]
6 | Cc1ccc(S(=O)(=O)c2n[nH]n3c2nc(=O)c2ccccc23)cc1 | 3.16 µM [rising, partial curve]
7 | COc1ccc2oc(-c3ccc(O)cc3)cc(=O)c2c1 | 10 µM [rising, partial curve]
8 | COc1ccc(OC)c(Nc2nc(-c3sc(C)nc3C)cs2)c1 | 15.8 µM [falling, single point]
9 | CCOC(=O)Cn1c(=O)oc2cc(S(=O)(=O)Nc3cc(OCC)ccc3OCC)ccc21 | 6.31 µM [rising, single point]
10 | Cc1cc(Oc2ccccc2)nc(-c2ccccc2)n1 | 0.0501 µM [falling, partial curve, poor fit]
11 | CCOC(=O)c1c(C)n(C)c2ccc(OC(C)C(=O)OC)cc12 (configuration not stated) | 12.6 µM [rising, single point]
12 | COc1cccc2c1C(=O)c1c(O)c3c(c(O)c1C2=O)C[C@](O)(C(C)=O)C[C@H]3O[C@@H]1C[C@H](N)[C@H](O)[C@H](C)O1 | 5.01 µM [rising, partial curve]
13 | NCCc1nnc(SCc2c(F)cccc2Cl)o1 | 2.51 µM [falling, partial curve]
14 | CN(Cc1ccccc1)c1nc2c(c(=O)[nH]c(=O)n2C)n1Cc1ccccc1 | 7.94 µM [rising, partial curve]
15 | COc1ccccc1NC(=O)N(Cc1cc2cc(OC)c(OC)cc2[nH]c1=O)CC1CCCO1 (configuration not stated) | 10 µM [rising, partial curve]
16 | CCCCCCN(C(=O)CCCCCN1C(=O)NC(c2ccc(-c3ccccc3)cc2)C(C(=O)OCc2ccccc2)=C1C)C(C(=O)NCCCC)c1ccc(OCC(=O)OC)c(C(=O)OC)c1 (configuration not stated) | 3.16 µM [rising, full curve, poor fit]
17 | CCC(C(=O)Nc1nccs1)c1ccccc1 (configuration not stated) | 1 µM [falling, full curve]
18 | CCOc1cccc(-n2nnnc2-c2ccc(OC)cc2)c1 | 15.8 µM [rising, single point]
19 | Cc1ccc(C)c(N2CCN(S(=O)(=O)c3ccc4[nH]c(=O)c(=O)[nH]c4c3)CC2)c1 | 2 µM [falling, partial curve, poor fit]
20 | CCCc1[nH]nc2c1C(c1ccc(OC)cc1OC)C(C#N)=C(N)O2 (configuration not stated) | 0.126 µM [falling, single point]
21 | CN(Cc1ccco1)c1ncnc2ccc(-c3cccnc3)cc12 | 3.98 µM [rising, full curve]

Row | Compound | AC50
22 | COCCn1c(SCC(=O)N2CCCc3ccccc32)nc2ccccc2c1=O | 3.16 µM [rising, single point]
23 | CCCCn1c(SCC(=O)NC(=O)NCc2ccco2)nc2cc(S(N)(=O)=O)ccc21 | 3.16 µM [falling, full curve]
24 | Cc1oc(-c2ccccc2F)nc1CN1CCC(C(=O)NCc2cccs2)CC1 | 12.6 µM [falling, single point]
25 | COc1cc(Cl)c(S(=O)(=O)N2CCN(Cc3ccc4c(c3)OCO4)CC2)cc1Cl | 15.8 µM [falling, partial curve]
26 | O=c1oc2c(CN3CCOCC3)c(O)c(Cl)cc2c2c1CCC2 | 10 µM [rising, partial curve]
27 | COc1ccc(C(=O)OCCNC(=O)c2c(Cl)nc3ccccn23)cc1 | 0.501 µM [rising, full curve]
28 | CCNc1ncc2nc(-c3cn(C)c4ccccc34)c(=O)n(-c3ccccc3)c2n1 | 5.01 µM [rising, partial curve]
29 | Cc1[nH]c2ccccc2c1C(=O)CN1CCN(C2CCCCC2)CC1 | 3.16 µM [falling, full curve]
30 | CC(C)Cn1c(N)c(C(=O)NCc2cccs2)c2nc3ccccc3nc21 | 12.6 µM [rising, partial curve]
31 | Cc1occc1C(=O)NCc1ccc2c(c1)OCO2 | 0.251 µM [rising, partial curve]
32 | COc1ccc(C(=O)Nc2ccccc2NC(=O)c2ccco2)cc1OC | 10 µM [rising, partial curve]
33 | COc1ccccc1OCC(=O)Nc1ccc(S(=O)(=O)Nc2nc(C)cc(C)n2)cc1 | 0.794 µM [rising, partial curve]
34 | COc1ccc(CSc2nc(N3CCOCC3)c3c(c2C#N)CC(C)(C)OC3)cc1 | 2 µM [rising, single point]
35 | Fc1ccc(C2=Nn3c(nnc3-c3n[nH]c4c3CCC4)SC2)cc1 | 0.398 µM [rising, full curve]
36 | Cc1nnc(NC2=NCCC2)s1 | 5.01 µM [falling, single point]
37 | OCCNCCCCOc1ccccc1F | 0.00316 µM [falling, full curve, poor fit]
38 | Cc1nc2c([nH]c3ccc(Br)cc32)s1 | 25.1 µM [rising, single point]
39 | C[C@@H](C(=O)Nc1ccc2ccccc2c1)[C@H]1C[C@]1(C)[C@H](NC(=O)c1cccnc1)c1ccccc1 | 3.16 µM [falling, partial curve]
40 | CS(=O)(=O)Nc1cccc(C(=O)CC2(O)C(=O)Nc3ccc(Br)cc32)c1 (configuration not stated) | 25.1 µM [falling, single point]
41 | COc1ccc(OC)c(-n2nnnc2SCC(=O)NCc2ccc3c(c2)OCO3)c1 | 15.8 µM [falling, single point]
42 | Cc1ccc(C(=O)CSc2nnc(CNc3ccc(C)cc3C)n2Cc2ccco2)cc1 | 3.98 µM [falling, partial curve]

Copied from the list.
AC50, `COc1cc(Cl)c(S(=O)(=O)N2CCN(Cc3ccc4c(c3)OCO4)CC2)cc1Cl` reads 15.8 µM [falling, partial curve]
AC50, `COCCn1c(SCC(=O)N2CCCc3ccccc32)nc2ccccc2c1=O` reads 3.16 µM [rising, single point]
